Four molecules from publication PMC3068998 can be followed below.

Sequences of proteins named here, by UniProt entry; tags and fusion partners are left off. Residues count along the entry.
UniProt P19321, residues 859-1276: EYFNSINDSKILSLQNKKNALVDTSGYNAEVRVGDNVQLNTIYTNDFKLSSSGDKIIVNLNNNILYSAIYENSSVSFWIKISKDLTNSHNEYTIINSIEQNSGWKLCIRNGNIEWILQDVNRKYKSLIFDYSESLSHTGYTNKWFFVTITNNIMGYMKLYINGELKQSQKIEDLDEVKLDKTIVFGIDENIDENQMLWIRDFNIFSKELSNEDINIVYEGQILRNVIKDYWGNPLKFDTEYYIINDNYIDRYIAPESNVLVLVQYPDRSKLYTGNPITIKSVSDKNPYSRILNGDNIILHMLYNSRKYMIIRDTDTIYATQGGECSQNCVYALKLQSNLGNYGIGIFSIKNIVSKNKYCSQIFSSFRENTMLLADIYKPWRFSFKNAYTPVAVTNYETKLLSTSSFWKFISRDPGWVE
UniProt Q00496, residues 820-1251: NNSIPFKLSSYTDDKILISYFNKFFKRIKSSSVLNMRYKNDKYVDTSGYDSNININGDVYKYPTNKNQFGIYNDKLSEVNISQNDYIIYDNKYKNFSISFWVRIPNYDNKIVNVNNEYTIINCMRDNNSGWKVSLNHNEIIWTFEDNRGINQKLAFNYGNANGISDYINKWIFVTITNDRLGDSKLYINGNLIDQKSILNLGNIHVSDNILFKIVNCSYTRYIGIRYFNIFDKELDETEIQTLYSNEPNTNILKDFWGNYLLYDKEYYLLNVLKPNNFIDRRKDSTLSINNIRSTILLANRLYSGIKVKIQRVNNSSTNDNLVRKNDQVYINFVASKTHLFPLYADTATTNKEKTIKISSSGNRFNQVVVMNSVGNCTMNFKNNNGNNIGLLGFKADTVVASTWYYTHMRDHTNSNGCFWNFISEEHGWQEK
UniProt P07825: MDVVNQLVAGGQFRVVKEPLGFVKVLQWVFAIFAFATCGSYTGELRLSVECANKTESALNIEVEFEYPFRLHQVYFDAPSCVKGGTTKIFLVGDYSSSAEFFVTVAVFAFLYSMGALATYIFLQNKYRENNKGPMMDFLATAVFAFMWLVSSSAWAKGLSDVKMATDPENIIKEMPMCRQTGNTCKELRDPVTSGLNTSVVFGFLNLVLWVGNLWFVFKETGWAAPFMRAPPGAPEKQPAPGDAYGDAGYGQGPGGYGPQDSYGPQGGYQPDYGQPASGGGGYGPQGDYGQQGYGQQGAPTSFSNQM
UniProt Q63564: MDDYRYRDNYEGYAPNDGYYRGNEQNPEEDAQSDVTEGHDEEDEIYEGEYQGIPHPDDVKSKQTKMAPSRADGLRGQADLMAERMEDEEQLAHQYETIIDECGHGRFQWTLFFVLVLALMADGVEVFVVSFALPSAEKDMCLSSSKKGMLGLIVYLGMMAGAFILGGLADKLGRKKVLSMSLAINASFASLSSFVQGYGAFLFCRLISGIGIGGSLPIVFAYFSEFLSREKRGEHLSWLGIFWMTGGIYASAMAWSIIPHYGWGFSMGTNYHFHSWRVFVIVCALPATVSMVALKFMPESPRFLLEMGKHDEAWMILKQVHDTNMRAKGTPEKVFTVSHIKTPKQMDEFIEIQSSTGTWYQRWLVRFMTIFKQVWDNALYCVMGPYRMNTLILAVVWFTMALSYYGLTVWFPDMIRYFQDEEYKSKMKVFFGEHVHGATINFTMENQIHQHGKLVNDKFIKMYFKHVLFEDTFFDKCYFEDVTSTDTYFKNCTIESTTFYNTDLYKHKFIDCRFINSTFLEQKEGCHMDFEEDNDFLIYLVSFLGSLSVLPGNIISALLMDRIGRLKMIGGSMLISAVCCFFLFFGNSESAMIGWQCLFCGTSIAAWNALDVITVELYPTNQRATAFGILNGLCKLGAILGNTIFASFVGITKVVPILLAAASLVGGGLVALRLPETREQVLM
UniProt Q02563: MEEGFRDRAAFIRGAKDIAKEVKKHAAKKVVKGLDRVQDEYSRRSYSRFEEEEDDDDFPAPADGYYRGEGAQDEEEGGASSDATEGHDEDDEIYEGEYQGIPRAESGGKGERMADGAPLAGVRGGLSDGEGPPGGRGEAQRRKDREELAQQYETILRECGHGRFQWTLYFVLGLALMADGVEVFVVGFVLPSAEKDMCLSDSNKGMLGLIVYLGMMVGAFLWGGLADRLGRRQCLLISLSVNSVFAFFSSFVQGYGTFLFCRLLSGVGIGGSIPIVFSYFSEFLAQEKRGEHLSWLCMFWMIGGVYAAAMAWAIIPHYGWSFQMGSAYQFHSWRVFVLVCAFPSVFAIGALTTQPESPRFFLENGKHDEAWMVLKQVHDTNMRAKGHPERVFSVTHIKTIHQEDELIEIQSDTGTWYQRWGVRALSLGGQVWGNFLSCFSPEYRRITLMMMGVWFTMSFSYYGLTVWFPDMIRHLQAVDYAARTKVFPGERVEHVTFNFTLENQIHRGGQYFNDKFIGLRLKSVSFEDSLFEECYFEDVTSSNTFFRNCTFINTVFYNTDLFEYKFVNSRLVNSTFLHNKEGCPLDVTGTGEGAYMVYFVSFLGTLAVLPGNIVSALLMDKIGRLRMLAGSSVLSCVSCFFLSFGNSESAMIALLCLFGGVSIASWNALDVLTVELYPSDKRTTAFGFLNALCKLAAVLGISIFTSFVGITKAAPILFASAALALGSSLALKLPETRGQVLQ

Holding throughout (assay): pull-down; only the target purified
For assay [1], the target named is GST-fusion receptor binding domain of BoNT/D (BoNT/D-HCR) (UniProt P19321).
Assay [2] concerns the target GST-fusion HCR of BoNT/E (BoNT/E-HCR) (UniProt Q00496).
Assay [3] concerns the target GST-fusion receptor binding domain of BoNT/D (BoNT/D-HCR) (UniProt P19321). The source holds these as a separate data set.
Assay [4] deals with GST-fusion HCR of BoNT/E (BoNT/E-HCR) (UniProt Q00496). The source holds these as a separate data set.

Where two headings read alike, the source gives them in different places. No constants are given. Whether binding was seen depends on the method and setting. Binding seen in cells or lysates may run through a third protein. Some results given as binding are weak or reduced against the parent protein; the word gives no strength.

“synaptophysin (endogenous, rat brain) (from UniProt P07825 1-307)”: the binding entry in assay [1] and in assay [2] was “no binding” each time. With “SV2B (endogenous, rat brain) (from UniProt Q63564 1-683)”, the binding result in assay [1] is “binds”; in assay [2], “no binding”. For the molecule “SV2A (endogenous, rat brain) (from UniProt Q02563 1-742)”, the binding entry in assay [2] is reported as “binds”.

B1: synaptogyrin I (endogenous, rat brain) (protein, UniProt Q62876 1-234)
chain: MEGGAYGAGKAGGAFDPYTLVRQPHTILRVVSWVFSIVVFGSIVNEGYLNNPEEEEEFCIYNRNPNACSYGVTVGVLAFLTCLVYLALDVYFPQISSVKDRKKAVLSDIGVSAFWAFFWFVGFCFLANQWQVSKPKDNPLNEGTDAARAAIAFSFFSIFTWAGQAVLAFQRYQIGADSALFSQDYMDPSQDSSMPYAPYVEPSAGSDPTGMGGTYQHPANAFDAEPQGYQSQGY
With B1, the binding entry in assay [3] and in assay [4] was “no binding” throughout.
